Assay: general procedure: Fmoc solid-phase peptide synthesis; Fmoc-Linker-BHA resin (Rink linker on benzhydrylamine resin); Wang resin; HBTU and DIC preferred, HOBT additive; HBTU/DIPEA in DMF
Details: whole synthesis, scale 0.2 mmol

In the case of Bu-His-(D)Phe-Arg-Trp-Gly-NH2, the crude mass is reported as 130 mg, the isolated mass is reported as 52 mg and the isolated yield is reported as 34%.

Source: US6600015B2 (Hoffmann-La Roche Inc., priority 2000, dated 2003)
